According to patent US20230147852A1:
These are yes or no findings as the source states them, for the method shown.

Biological target: Cyno LAG3 (cynomolgus monkey)
Assay: […], antibody ([…]) at 2 µg/mL, […]

B1: 8D9 (antibody, V domains shown)
VH: QVQLVQSGAEVRKPGSSVKVSCKASGGTFSNYAFSWVRQAPGLGLEWLGAIIPEFDTANYAQKFKDRVTITADDSTTTVYMELSSLRSEDTAVYYCASGMWDYYGSGSSIDYWGQGTLVTVSS
VL: QSVLTQPPSASGTPGQRVTISCSGSNSDIGRNPVNWYHQFPGTAPKLLIFSNSHRPSGVPDRFSGSKSGTSASLAIGGLQSDDEADYYCAAWSDSLNGYVFGTGTKLTVL
Question: For B1, which binding is on record?
Answer: no binding (tested: 2 µg/mL)

B2: 1C5-3A6 (antibody, V domains shown)
VH: QVQLVQSGAEVKKPGASVKVSCKASGYTLTDYYIHWVRQAPGQGLEWVGWINPNSGGTNYEQKFQGRVTMTWDTSISTAYMELSRLTSDDTAVYYCAREGWSNDWYVGYYFDYWGQGTLVTVSS
VL: DIQMTQSPLSLSASVGDRVSITCRASQYIGTSLNWYEQKPGNSPKLLITGASRLQSGVPSRFSGSGSGTDFTLTINTLQPDDLATYYCHQSYDDPPTFGQGTKLEIK
Question: B2 was tested. Which binding did it give?
Answer: no binding (tested: 2 µg/mL)
